These are yes or no findings as the source states them, for the method shown. In cells and extracts the contact can be indirect. Some binding calls cover weakened binding; strength is not graded here. Tags and fused reporters may be left off the sequences shown.

The chains behind the UniProt entries cited, without tags or fusion partners.
UniProt Q9H4A6: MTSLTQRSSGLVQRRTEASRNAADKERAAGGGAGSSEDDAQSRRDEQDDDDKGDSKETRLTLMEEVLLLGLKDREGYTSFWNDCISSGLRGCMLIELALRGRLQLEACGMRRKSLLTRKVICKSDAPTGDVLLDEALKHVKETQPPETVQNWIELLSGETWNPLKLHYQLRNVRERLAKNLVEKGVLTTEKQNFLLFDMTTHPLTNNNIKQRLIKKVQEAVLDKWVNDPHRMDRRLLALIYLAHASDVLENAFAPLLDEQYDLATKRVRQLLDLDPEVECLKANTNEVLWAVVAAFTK

One experiment addresses T1, β3GalT-IV^(1−52)-HA-YFP (UniProt Q9Z0F0).
T1 sequence: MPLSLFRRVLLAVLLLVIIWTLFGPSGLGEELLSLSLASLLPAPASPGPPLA
In words: co-IP; lysates of transiently transfected T98G cells (for ST3Gal-II/β3GalT-IV: control or GOLPH3 knockdown cells); lysis buffer 50 mM Tris-HCl pH 7.2, 1.0% Triton X-100, 300 mM NaCl; IP with anti-HA mAb and protein G-Sepharose, 4 °C; Western blot with anti-RFP, anti-GFP or anti-HA.

For a further experiment, the target named is T2, ST3Gal-II-HA (UniProt Q16842).
T2 sequence: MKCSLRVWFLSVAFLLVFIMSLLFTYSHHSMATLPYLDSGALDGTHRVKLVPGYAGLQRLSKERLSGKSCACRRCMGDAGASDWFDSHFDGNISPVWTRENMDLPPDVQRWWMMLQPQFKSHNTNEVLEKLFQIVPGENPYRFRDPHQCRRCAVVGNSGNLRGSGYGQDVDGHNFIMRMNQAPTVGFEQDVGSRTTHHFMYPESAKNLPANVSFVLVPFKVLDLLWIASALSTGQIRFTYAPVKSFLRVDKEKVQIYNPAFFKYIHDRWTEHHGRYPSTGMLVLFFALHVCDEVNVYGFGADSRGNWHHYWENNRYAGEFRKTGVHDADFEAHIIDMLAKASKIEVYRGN
The description is as above.

As for GOLPH3-GFP (from UniProt Q9H4A6 1-298), the binding result with β3GalT-IV^(1−52)-HA-YFP and in the experiment with ST3Gal-II-HA was “binds” throughout.

Values taken from article PMC9499508.
